# System: human liver microsomes (HLM)
# Test: Inhibition of C152 metabolism, HLM
# Type: biochemical
# Settings: 30 μM C152 as substrate
smiles,measurement,value
"Clc1ccccc1C(c1ccccc1)(c1ccccc1)n1ccnc1 [CTZ, clotrimazole]",IC50,240 ± 50 nM
same,Inhibition (maximal amplitude),71±2%

# Source: PMC7740640 (Xenobiotica; the fate of foreign compounds in biological …, 2020)
